The target of the experiment is CD44 (human (endogenous in TIG-3S)) (UniProt P16070). Description: co-IP; IP of CD44 with anti-CD44 antibody and protein G magnetic beads, immunoblot of EGFR; lysis buffer 50 mM Tris-HCl pH 7.4, 150 mM NaCl, 0.1% SDS, 1% sodium deoxycholate, 1% NP-40; TIG-3S fibroblasts after TGF-β1 stimulation; control vs 2 mM BGN-treated, control vs 100 U/ml sialidase-treated EP fibroblasts; EP vs LP vs 2 mM zanamivir-treated LP fibroblasts.

Sequences of proteins named here, by UniProt entry; tags and fusion partners are left off. Residues count along the entry.
UniProt P16070, residues 21-742: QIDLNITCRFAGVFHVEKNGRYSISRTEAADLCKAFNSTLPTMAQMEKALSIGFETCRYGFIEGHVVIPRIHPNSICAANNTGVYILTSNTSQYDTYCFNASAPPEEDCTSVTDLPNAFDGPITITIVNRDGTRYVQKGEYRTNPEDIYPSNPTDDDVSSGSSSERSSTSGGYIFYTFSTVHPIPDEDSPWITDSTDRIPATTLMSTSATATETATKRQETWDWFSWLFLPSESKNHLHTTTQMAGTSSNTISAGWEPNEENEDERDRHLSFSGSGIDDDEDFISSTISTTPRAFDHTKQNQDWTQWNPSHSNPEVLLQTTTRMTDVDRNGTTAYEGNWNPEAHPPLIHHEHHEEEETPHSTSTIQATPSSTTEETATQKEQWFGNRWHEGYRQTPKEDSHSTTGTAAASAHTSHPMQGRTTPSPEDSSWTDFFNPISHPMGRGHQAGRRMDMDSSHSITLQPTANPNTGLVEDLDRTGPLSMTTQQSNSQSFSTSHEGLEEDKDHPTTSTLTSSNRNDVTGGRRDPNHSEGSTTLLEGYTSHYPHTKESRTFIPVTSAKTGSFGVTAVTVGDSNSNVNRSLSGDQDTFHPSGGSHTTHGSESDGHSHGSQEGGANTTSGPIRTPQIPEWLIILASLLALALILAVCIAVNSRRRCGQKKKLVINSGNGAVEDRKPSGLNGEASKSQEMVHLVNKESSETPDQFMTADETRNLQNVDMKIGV

These are yes or no findings as the source states them, for the method shown. Binding seen in cells or lysates may run through a third protein. Some binding calls cover weakened binding; strength is not graded here.

Consider “epidermal growth factor receptor (from UniProt P00533 25-1210)”, for which the binding result is recorded as “binds”.

Values taken from article PMC5395757.
